Laboratory results: the supplement of paper PMC10849652
The list shows a part of the results.

Amino acid sequences for entries named in this document (tags omitted). A change or cut given only in a name is not applied to a line headed by its entry.
UniProt Q0ZGT2: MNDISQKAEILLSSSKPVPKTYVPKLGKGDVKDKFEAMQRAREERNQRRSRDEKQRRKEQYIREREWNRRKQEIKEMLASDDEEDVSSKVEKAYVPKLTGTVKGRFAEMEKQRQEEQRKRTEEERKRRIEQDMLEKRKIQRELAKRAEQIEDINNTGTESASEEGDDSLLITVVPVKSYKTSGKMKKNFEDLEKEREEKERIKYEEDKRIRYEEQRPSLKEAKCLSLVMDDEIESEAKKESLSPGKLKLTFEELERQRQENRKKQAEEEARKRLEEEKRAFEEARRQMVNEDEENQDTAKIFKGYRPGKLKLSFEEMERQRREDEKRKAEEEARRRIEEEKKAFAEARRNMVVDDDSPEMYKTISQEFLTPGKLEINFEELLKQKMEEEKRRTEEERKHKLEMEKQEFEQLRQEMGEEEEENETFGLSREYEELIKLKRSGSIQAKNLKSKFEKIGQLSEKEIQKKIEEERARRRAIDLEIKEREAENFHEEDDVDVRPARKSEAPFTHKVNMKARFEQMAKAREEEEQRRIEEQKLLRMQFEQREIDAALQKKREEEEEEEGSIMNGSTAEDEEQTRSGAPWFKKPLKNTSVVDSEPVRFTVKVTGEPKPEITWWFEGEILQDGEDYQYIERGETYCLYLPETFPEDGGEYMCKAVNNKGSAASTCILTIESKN
UniProt P52848: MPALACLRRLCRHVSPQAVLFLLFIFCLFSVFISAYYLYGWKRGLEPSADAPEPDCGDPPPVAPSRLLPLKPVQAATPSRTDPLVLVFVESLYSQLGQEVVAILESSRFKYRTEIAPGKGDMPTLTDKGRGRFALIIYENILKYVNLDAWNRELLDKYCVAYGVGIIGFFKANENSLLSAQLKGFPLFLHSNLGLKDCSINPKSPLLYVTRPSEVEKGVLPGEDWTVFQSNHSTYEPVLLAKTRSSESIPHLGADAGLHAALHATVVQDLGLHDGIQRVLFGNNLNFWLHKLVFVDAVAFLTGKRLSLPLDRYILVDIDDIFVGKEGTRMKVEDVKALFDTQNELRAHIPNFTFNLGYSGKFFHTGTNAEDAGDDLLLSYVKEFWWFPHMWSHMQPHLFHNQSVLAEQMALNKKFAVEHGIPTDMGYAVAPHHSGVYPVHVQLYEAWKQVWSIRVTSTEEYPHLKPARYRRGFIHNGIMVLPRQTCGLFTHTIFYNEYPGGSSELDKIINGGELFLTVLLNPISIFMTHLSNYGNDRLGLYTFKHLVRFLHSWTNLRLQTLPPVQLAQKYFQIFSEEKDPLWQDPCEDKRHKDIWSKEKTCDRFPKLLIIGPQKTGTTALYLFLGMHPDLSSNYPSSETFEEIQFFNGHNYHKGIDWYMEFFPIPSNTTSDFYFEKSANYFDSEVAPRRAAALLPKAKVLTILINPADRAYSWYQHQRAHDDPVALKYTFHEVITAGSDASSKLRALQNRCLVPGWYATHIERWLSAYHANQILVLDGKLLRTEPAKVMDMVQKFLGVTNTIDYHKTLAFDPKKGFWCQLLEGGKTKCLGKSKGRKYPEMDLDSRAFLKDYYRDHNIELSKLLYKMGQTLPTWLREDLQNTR
UniProt Q6P4R8, whole entry, looked up: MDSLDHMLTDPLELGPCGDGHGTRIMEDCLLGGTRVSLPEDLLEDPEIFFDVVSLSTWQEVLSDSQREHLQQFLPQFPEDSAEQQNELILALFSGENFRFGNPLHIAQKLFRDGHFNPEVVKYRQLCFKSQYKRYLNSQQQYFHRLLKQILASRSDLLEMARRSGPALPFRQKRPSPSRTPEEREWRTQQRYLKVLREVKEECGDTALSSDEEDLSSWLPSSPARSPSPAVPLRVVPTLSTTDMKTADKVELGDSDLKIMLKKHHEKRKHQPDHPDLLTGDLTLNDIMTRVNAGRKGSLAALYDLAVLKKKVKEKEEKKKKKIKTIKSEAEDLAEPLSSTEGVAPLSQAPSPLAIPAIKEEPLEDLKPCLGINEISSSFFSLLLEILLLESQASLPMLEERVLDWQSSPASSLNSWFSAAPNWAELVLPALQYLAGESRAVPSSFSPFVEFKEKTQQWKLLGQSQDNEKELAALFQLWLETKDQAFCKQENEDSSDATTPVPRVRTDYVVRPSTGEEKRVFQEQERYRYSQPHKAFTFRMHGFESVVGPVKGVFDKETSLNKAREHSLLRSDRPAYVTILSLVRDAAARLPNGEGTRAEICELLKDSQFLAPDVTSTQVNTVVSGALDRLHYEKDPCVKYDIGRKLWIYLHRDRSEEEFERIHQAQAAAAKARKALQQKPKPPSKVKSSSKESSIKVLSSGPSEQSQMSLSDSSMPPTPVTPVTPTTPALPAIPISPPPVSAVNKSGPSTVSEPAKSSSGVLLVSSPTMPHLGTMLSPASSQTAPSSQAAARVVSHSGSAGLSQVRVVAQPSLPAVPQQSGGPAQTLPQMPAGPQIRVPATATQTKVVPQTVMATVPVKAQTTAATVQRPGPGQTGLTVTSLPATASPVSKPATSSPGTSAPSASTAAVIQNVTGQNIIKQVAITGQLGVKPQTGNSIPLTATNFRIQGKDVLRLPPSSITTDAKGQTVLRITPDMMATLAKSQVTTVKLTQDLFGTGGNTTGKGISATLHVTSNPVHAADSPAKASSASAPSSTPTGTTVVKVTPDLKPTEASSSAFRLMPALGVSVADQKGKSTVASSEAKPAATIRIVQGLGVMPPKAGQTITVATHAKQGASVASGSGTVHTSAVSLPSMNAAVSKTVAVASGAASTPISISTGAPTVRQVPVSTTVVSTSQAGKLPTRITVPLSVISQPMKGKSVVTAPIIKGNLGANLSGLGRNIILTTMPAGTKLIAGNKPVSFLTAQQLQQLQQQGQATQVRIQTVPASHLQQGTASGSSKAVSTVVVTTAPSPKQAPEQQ
UniProt O43677, whole entry, looked up: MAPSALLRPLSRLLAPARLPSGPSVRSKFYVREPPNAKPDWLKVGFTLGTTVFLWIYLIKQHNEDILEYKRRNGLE
UniProt O75438, whole entry, looked up: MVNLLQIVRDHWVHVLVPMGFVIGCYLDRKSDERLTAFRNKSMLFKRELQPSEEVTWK
UniProt Q16236, whole entry, looked up: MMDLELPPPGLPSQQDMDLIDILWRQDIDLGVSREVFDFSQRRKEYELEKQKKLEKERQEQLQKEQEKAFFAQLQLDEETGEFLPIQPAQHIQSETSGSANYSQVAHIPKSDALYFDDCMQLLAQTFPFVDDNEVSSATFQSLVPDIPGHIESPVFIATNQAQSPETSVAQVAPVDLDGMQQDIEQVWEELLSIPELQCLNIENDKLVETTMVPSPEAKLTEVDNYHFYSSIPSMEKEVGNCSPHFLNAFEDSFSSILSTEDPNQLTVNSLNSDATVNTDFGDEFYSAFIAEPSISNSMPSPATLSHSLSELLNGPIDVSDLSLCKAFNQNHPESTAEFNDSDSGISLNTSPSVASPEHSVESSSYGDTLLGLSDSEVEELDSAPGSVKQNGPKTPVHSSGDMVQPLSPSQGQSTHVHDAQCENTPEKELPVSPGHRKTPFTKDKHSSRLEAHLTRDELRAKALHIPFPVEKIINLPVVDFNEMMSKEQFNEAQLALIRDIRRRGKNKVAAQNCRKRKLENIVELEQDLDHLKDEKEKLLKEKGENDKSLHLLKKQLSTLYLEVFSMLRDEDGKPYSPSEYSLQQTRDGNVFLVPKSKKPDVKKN
UniProt Q92859: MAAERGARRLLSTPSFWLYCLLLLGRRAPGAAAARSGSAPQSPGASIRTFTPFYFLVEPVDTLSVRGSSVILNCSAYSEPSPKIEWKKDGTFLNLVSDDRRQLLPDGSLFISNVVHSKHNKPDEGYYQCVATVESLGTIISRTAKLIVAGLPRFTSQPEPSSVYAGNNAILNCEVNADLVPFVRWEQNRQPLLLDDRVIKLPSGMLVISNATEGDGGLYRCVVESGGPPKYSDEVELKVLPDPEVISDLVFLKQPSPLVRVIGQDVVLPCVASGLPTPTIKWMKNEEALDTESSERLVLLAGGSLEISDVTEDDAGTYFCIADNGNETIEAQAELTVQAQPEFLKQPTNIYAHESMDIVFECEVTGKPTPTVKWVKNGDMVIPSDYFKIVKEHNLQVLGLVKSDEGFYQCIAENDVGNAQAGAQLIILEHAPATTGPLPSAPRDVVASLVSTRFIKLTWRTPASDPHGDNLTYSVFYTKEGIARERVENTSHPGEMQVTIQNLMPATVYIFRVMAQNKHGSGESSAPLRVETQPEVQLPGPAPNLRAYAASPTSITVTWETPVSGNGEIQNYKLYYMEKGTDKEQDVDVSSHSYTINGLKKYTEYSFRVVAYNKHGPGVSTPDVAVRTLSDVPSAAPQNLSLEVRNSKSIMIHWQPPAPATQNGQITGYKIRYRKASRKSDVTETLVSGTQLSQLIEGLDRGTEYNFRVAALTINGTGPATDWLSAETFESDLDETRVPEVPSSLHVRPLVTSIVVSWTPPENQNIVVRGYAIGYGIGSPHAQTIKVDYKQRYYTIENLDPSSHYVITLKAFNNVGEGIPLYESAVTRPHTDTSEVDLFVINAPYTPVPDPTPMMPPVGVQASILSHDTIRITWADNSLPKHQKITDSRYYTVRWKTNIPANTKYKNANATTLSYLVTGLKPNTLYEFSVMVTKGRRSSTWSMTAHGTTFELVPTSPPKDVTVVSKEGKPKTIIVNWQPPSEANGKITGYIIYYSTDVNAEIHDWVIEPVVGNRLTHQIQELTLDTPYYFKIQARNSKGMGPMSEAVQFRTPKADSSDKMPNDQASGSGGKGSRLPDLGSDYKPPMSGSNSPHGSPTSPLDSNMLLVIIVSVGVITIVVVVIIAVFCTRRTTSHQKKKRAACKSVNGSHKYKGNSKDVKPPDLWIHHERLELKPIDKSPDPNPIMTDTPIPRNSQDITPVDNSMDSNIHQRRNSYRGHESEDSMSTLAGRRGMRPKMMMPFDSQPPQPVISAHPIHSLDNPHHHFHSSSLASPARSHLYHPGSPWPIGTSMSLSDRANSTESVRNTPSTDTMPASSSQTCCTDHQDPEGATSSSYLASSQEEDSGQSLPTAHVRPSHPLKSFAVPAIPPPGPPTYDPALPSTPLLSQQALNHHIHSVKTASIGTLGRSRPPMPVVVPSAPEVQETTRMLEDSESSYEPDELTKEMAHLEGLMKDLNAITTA
UniProt Q969S2: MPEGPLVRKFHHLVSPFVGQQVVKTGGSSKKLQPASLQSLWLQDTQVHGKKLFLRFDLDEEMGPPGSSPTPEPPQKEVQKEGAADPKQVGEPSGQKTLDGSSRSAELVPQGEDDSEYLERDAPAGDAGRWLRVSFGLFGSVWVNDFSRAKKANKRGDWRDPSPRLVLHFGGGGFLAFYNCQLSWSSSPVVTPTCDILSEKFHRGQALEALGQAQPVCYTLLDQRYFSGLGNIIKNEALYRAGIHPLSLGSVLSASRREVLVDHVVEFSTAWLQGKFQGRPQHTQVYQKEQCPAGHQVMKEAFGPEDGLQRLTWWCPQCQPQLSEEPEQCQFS
UniProt Q6P3R8: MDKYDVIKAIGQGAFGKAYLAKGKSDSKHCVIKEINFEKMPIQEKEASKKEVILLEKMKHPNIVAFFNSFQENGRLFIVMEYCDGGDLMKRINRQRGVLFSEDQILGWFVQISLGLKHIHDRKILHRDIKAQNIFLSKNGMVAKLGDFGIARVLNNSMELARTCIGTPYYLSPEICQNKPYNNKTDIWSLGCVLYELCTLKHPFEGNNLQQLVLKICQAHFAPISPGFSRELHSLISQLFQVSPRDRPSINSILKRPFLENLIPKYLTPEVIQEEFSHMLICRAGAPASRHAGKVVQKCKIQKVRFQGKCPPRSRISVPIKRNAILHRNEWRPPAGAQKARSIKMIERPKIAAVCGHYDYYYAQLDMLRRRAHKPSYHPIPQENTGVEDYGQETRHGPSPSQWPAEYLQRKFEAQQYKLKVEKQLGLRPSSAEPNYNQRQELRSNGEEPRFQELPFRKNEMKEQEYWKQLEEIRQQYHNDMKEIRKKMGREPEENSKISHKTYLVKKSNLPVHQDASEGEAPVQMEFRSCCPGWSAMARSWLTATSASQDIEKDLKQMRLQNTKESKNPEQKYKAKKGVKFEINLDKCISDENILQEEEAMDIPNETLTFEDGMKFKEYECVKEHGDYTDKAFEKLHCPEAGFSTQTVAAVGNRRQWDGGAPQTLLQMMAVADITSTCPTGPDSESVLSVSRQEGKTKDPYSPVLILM
UniProt Q13952: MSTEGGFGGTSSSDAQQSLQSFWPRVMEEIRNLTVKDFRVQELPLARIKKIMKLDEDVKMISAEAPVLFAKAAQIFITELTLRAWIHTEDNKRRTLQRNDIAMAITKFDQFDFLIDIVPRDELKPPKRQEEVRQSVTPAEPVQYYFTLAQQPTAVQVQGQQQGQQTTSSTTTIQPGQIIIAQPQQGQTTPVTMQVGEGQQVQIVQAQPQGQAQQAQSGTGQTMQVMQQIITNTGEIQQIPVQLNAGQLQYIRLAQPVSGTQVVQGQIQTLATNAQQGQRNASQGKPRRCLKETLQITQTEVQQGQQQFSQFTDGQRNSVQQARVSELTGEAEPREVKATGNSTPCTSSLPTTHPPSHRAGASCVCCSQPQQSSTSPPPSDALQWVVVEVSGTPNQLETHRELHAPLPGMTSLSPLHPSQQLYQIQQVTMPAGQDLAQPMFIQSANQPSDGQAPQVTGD

Assays:
Experiment in all cases: log2 fold change, soluble protein after heating vs DMSO (PISA); higher = thermal stabilisation; K562 lysate, 10 uM; active = over 0.2 and 3.5 SD of the protein, either way, in both replicates (recomputed)
lapatinib = compound: CS(=O)(=O)CCNCc1ccc(-c2ccc3ncnc(Nc4ccc(OCc5cccc(F)c5)c(Cl)c4)c3c2)o1 [lapatinib]
Outline: (§1)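 The values are log-two fold changes in thermal stability compared with solvent controls and come from duplicates. They were obtained by TMTpro 16plex LC-MS/MS, with channel sums equalised, on the supernatant after 21,000xg for 90 min. That supernatant came from crude K562 extract at 1 mg/mL protein treated with 10 μM compound for 30 min, heated for 3 min across 48°C-58°C, pooled and brought to 0.5% NP-40 at 4°C.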

pictilisib = compound: CS(=O)(=O)N1CCN(Cc2cc3nc(-c4cccc5[nH]ncc45)nc(N4CCOCC4)c3s2)CC1 [pictilisib]
Outline: as §1

crizotinib = compound: C[C@@H](Oc1cc(-c2cnn(C3CCNCC3)c2)cnc1N)c1c(Cl)ccc(F)c1Cl [crizotinib]
Outline: as §1

duvelisib = compound: C[C@H](Nc1ncnc2nc[nH]c12)c1cc2cccc(Cl)c2c(=O)n1-c1ccccc1 [duvelisib]
Outline: as §1

doramapimod = compound: Cc1ccc(-n2nc(C(C)(C)C)cc2NC(=O)Nc2ccc(OCCN3CCOCC3)c3ccccc23)cc1 [doramapimod]
Outline: as §1

bafetinib = compound: Cc1ccc(NC(=O)c2ccc(CN3CC[C@H](N(C)C)C3)c(C(F)(F)F)c2)cc1Nc1nccc(-c2cncnc2)n1 [bafetinib]
Outline: as §1

nilotinib = compound: Cc1cn(-c2cc(NC(=O)c3ccc(C)c(Nc4nccc(-c5cccnc5)n4)c3)cc(C(F)(F)F)c2)cn1 [nilotinib]
Outline: as §1

[1] = compound: Cc1nc(Nc2n[nH]c3c2CN(C(=O)N[C@H](CN(C)C)c2ccccc2)C3(C)C)c2sccc2n1
Outline: as §1

dasatinib = compound: Cc1nc(Nc2ncc(C(=O)Nc3c(C)cccc3Cl)s2)cc(N2CCN(CCO)CC2)n1 [dasatinib]
Outline: as §1

[2] = compound: Cc1ncc(-c2ccnc(Nc3ccc(S(C)(=O)=O)cc3)n2)n1C(C)C
Outline: as §1

[3] = compound: Cn1cc(-c2ccc3c(c2)CCN3C(=O)Cc2cccc(C(F)(F)F)c2)c2c(N)ncnc21
Outline: as §1

quisinostat = compound: Cn1cc(CNCC2CCN(c3ncc(C(=O)NO)cn3)CC2)c2ccccc21 [quisinostat]
Outline: as §1

tipifarnib = compound: Cn1cncc1[C@@](N)(c1ccc(Cl)cc1)c1ccc2c(c1)c(-c1cccc(Cl)c1)cc(=O)n2C [tipifarnib]
Outline: as §1

[4] = compound: NC(=O)Nc1cc(-c2cccc(F)c2)sc1C(=O)N[C@H]1CCCNC1
Outline: as §1

[5] = compound: NC(=O)c1cnc(N[C@@H]2CCCC[C@@H]2N)nc1Nc1cccc(-n2nccn2)c1
Outline: as §1

[6] = compound: NC1(c2ccc(-c3nc4ccn5c(=O)[nH]nc5c4cc3-c3ccccc3)cc2)CCC1
Outline: as §1

[7] = compound: C[C@H](C1=CC=C(C=C1)C(=O)NC2=C3C=CNC3=NC=C2)N
Outline: as §1

gandotinib = compound: Cc1cc(Nc2cc(CN3CCOCC3)c3nc(C)c(Cc4ccc(Cl)cc4F)n3n2)n[nH]1 [gandotinib]
Outline: as §1

tozasertib = compound: Cc1cc(Nc2cc(N3CCN(C)CC3)nc(Sc3ccc(NC(=O)C4CC4)cc3)n2)n[nH]1 [tozasertib]
Outline: as §1

[8] = compound: Cc1cccc(CC(=O)N2CCc3c2ccc(-c2cn(C)c4ncnc(N)c24)c3F)n1
Outline: as §1

Measured: log2 fold change

NFKBIA (UniProt P25963)
inactive: lapatinib -0.032 | pictilisib -0.025 | crizotinib -0.091 | duvelisib 0.078 | doramapimod 0.127 | bafetinib -0.114 | nilotinib 0.236 | [1] -0.148 | dasatinib -0.151 | [2] -0.177 | [3] 0.096 | quisinostat 0.052 | tipifarnib 0.053 | [4] -0.027 | [5] -0.042 | [6] -0.145

NFE2L1 (UniProt Q14494)
inactive: crizotinib 0 | [7] -0.181 | gandotinib -0.135 | tozasertib -0.072 | doramapimod -0.07 | [8] 0.086 | quisinostat 0 | [4] 0.034 | [6] 0.025

NFAT5 isoform 4 (UniProt O94916)
inactive: pictilisib -0.138 | crizotinib -0.028 | doramapimod -0.158 | bafetinib -0.053 | quisinostat 0.014 | [4] 0.012

NDRG2 (UniProt G3V2A6)
inactive: lapatinib 0.035 | pictilisib -0.288 | bafetinib 0.031 | nilotinib -0.062 | [1] -0.016 | [2] 0.06 | tipifarnib -0.057 | [5] 0.004

NEXN (UniProt Q0ZGT2)
inactive: lapatinib 0.066 | pictilisib -0.137 | [7] -0.239 | duvelisib -0.088 | gandotinib 0.172 | tozasertib -0.237 | bafetinib 0.043 | [8] 0.198 | nilotinib -0.022 | [1] -0.011 | dasatinib 0.043 | [2] -0.051 | [3] 0.027 | tipifarnib -0.043 | [5] -0.149 | [6] -0.002

NDST1 (UniProt P52848)
inactive: lapatinib -0.106 | pictilisib -0.039 | crizotinib -0.035 | duvelisib -0.053 | tozasertib 0.051 | doramapimod 0.093 | bafetinib -0.082 | nilotinib -0.174 | [1] -0.085 | dasatinib -0.015 | [2] -0.002 | [3] 0.03 | quisinostat 0.009 | tipifarnib -0.016 | [4] 0.002 | [5] 0.099 | [6] -0.05

NFRKB isoform 2 (UniProt Q6P4R8)
inactive: lapatinib 0.16 | crizotinib -0.082 | [7] 0.036 | gandotinib 0.126 | tozasertib 0.199 | doramapimod -0.017 | [8] 0.025 | nilotinib -0.136 | [1] 0.028 | [2] 0.046 | quisinostat -0.095 | tipifarnib 0.045 | [4] 0.055 | [5] -0.05 | [6] 0.026

NDUFC1 (UniProt O43677)
inactive: duvelisib -0.183 | tozasertib 0.029 | dasatinib 0.033 | [3] -0.01 | [6] 0.066

NKTR (UniProt P30414)
inactive: lapatinib -0.015 | pictilisib -0.08 | [7] -0.44 | duvelisib 0.168 | gandotinib 0.358 | tozasertib -0.1 | bafetinib -0.178 | [8] 0.431 | nilotinib 0.009 | [1] -0.016 | dasatinib -0.157 | [2] 0.046 | [3] -0.05 | tipifarnib 0.003 | [5] -0.043 | [6] -0.1

NLRC3 isoform 2 (UniProt Q7RTR2)
inactive: lapatinib -0.013 | pictilisib -0.051 | crizotinib -0.101 | duvelisib 0.067 | tozasertib 0.045 | doramapimod 0.067 | bafetinib -0.253 | nilotinib -0.119 | [1] 0.206 | dasatinib -0.025 | [2] -0.085 | [3] -0.022 | quisinostat -0.183 | tipifarnib -0.015 | [4] -0.031 | [5] -0.001 | [6] -0.141

NET1 (UniProt Q7Z628)
inactive: crizotinib -0.122 | doramapimod -0.133 | nilotinib 0.044 | [1] 0.077 | [2] -0.144 | quisinostat -0.038 | tipifarnib 0.08 | [4] 0.154 | [6] 0.012

NLRP1 (UniProt Q9C000)
inactive: crizotinib 0.236 | duvelisib -0.584 | tozasertib -0.07 | doramapimod -0.199 | dasatinib -0.045 | [3] -0.133 | quisinostat 0.311 | [4] 0.128 | [6] 0.25

NDUFB1 (UniProt O75438)
inactive: pictilisib -0.108 | crizotinib 0.017 | [7] 0.265 | duvelisib -0.041 | gandotinib -0.223 | doramapimod -0.031 | bafetinib -0.035 | [8] -0.131 | nilotinib 0.02 | [1] 0.024 | dasatinib -0.009 | [2] 0.225 | [3] -0.026 | quisinostat -0.026 | tipifarnib -0.124 | [4] 0.018 | [6] 0.004

NFE2L2 (UniProt Q16236)
inactive: crizotinib 0.099 | doramapimod -0.01 | quisinostat 0.031 | [4] -0.125

NIN isoform 7 (UniProt Q8N4C6)
inactive: lapatinib 0.054 | crizotinib -0.042 | [7] 0.009 | gandotinib -0.136 | doramapimod -0.041 | [8] -0.052 | quisinostat 0.044 | [4] 0.042 | [5] 0.016 | [6] -0.018

NEO1 (UniProt Q92859)
inactive: pictilisib -0.043 | [7] -0.248 | gandotinib -0.03 | bafetinib -0.244 | [8] 0.166

2 successive records out of the list so far, quoted:
NLRP1 (UniProt Q9C000)
inactive: crizotinib 0.236 | duvelisib -0.584 | tozasertib -0.07 | doramapimod -0.199 | dasatinib -0.045 | [3] -0.133 | quisinostat 0.311 | [4] 0.128 | [6] 0.25

NDUFB1 (UniProt O75438)
inactive: pictilisib -0.108 | crizotinib 0.017 | [7] 0.265 | duvelisib -0.041 | gandotinib -0.223 | doramapimod -0.031 | bafetinib -0.035 | [8] -0.131 | nilotinib 0.02 | [1] 0.024 | dasatinib -0.009 | [2] 0.225 | [3] -0.026 | quisinostat -0.026 | tipifarnib -0.124 | [4] 0.018 | [6] 0.004

(listing goes on)

NEIL2 (UniProt Q969S2)
inactive: nilotinib -0.253 | [1] -0.144 | [2] 0.035 | tipifarnib -0.036 | [6] 0.008

NEK5 (UniProt Q6P3R8)
inactive: lapatinib -0.067 | [7] -0.151 | duvelisib 0.114 | gandotinib 0.099 | tozasertib 0.11 | [8] 0.019 | nilotinib -0.105 | [1] -0.011 | dasatinib -0.163 | [2] -0.012 | [3] -0.009 | tipifarnib -0.034 | [5] 0.053

NFYC isoform 3 (UniProt Q13952)
inactive: duvelisib 0.026 | dasatinib 0.042 | [3] -0.213 | [6] 0.051

NKAPD1 isoform 2 (UniProt Q6ZUT1)
inactive: nilotinib 0.038 | [1] 0.23 | [2] 0.147 | tipifarnib -0.137 | [6] -0.105

NEURL4 (UniProt Q96JN8)
inactive: lapatinib 0.057 | crizotinib -0.104 | [7] 0.059 | duvelisib 0.048 | gandotinib -0.149 | tozasertib 0.099 | doramapimod -0.342 | [8] 0 | dasatinib 0.006 | [3] 0.034 | quisinostat 0.095 | [4] -0.129 | [5] -0.063 | [6] 0.145
